From patent publication US11571455B2, “Methods and compositions for treating alcoholic liver disease” (VANDERBILT UNIVERSITY, priority 2013, dated 2023)
Entries after “also recorded” stand apart in the source; their conditions may differ. Not every detail of the peptide structures is certain; ends, links or a residue may be inferred. Bridge positions count the residues as written; N and C are the ends. Peptide text beside a SMILES is read from it.

Legend:
[1] = tested on: mice challenged with LPS; settings: mouse, in vivo
[2] = tested on: Staphylococcal enterotoxin B-induced systemic inflammation; settings: mouse
[3] = tested on: LPS-inducible genes in the liver; set-up: species or system mice; settings: mouse, in vivo
[4] = tested on: EtOH-fed mice challenged with LPS; set-up: species or system mice (C57BL/6J strain); settings: mouse, in vivo

CSCC[C@@H]1NC(=O)[C@H](CC(C)C)NC(=O)[C@H](CCCCN)NC(=O)[C@H](CCC(N)=O)NC(=O)[C@H](CCCNC(=N)N)NC(=O)[C@H](CCCCN)NC(=O)[C@H](CCCNC(=N)N)NC(=O)[C@H](CCC(N)=O)NC(=O)[C@H](C(C)C)NC(=O)[C@H](Cc2ccc(O)cc2)NC(=O)[C@@H](NC(=O)[C@@H]2CCCN2C(=O)[C@H](C)NC(=O)[C@H](CC(C)C)NC(=O)[C@H](CC(C)C)NC(=O)[C@H](C)NC(=O)[C@H](CC(C)C)NC(=O)[C@H](CC(C)C)NC(=O)[C@@H](NC(=O)[C@H](C)NC(=O)[C@@H]2CCCN2C(=O)[C@H](CC(C)C)NC(=O)[C@H](CC(C)C)NC(=O)[C@H](C)NC(=O)[C@@H](NC(=O)[C@H](C)NC(=O)[C@H](C)N)C(C)C)C(C)C)CSSC[C@@H](C(=O)O)NC(=O)[C@@H]2CCCN2C1=O [cSN50] (H-AAVALLPAVLLALLAPCYVQRKRQKLMPC-OH; disulfide 17-29; N-terminus and C-terminus assumed)
LPS-induced cytokine/chemokine bursts, caspase activation, apoptosis, microvascular injury, platelet drop [1]: abrogated all these changes
increase of survival [1]: 10 fold
survival [1]: 71%
duration of the protective in vivo effect [2]: at least 72 h
extent of liver apoptosis and hemorrhagic necrosis ([2]; in vivo): reduced
mortality rates ([2]; in vivo): significantly decreased
LPS-inducible genes in the liver suppressed [3]: ~50%
EtOH-enhanced liver injury caused by LPS [4]: suppressed; also recorded: attenuated
anti-inflammatory cytokine IL10 [4]: induced an increase
EtOH enhanced proinflammatory cytokines and chemokine production (TNF alpha, IL6, MCP1) ([4]; ip): attenuation; also recorded: suppressed EtOH enhanced proinflammatory cytokines and chemokine production to the baseline level
